Experimental data from PubChem BioAssay AID2417 (National Center for Advancing Translational Sciences (NCATS), 2010).
About 4,300 (3.1%) of roughly 140,000 compounds were called active. This list was built around the results that the source calls inconclusive (neither active nor inactive); the mix of calls is not that of the screen.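 How the source made its calls: active means readout at or below -70, meaning at least 70% loss of cells showing the perinucleolar compartment, a nuclear body marking cancer cells; inconclusive means readout between -30 and a set limit; inactive means the rest.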

Assay: High Content Assay for Compounds that inhibit the Assembly of the Perinucleolar Compartment;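 further: plate controls were DMSO wells for no effect and camptothecin positive control wells for full effect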
Conditions: PC3M PTB-GFP, PNC prevalence imaging, 16 h; at 10 µM; stronger effect = lower value
Outline: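 Compounds are pinned in duplicate onto adhered PC3M cells stably expressing GFP-tagged PTB and incubated 16 h at 37 C. Cells are then fixed, nuclei stained with Hoechst, and PNC-positive cells counted.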

| SMILES | activity change (PNC), negative = inhibition |
| --- | --- |
| CC(C)(C)n1nnnc1C(c1cccnc1)N1CCN(c2cccc(C(F)(F)F)c2)CC1 (centres undefined) | inconclusive: -36.3% |
| COc1ccc(C2C3=C(CC(C)(C)CC3=O)Nc3c2c(=O)[nH]c(=O)n3Cc2ccccc2)cc1 (centres undefined) | inconclusive: -30.4% |
| O=C(/C=C/c1ccc(Br)cc1)c1ccc(NC2=NCCCS2)cc1 | active: -93% |
| CC(O)Cn1ccccc1=N (centres undefined) | inconclusive: -37.3% |
| c1csc(C(c2nnnn2C2CCCC2)N2CCCC3(CCCCC3)C2)c1 (centres undefined) | inactive: 29.3% |
| CC(C)NC(=S)N1CCn2c(nc3ccccc32)C1 | inconclusive: -48.1% |
| Cc1cc(C)nc(NS(=O)(=O)c2ccc(NC(=O)CCN3C(=O)c4ccccc4C3=O)cc2)n1 | inconclusive: -52.9% |
| Cc1cc(C)cc(NS(=O)(=O)c2ccc(NC(=S)NC(=O)c3cccs3)cc2)c1 | inconclusive: -48.6% |
| C=CCC1(NC(C)c2ccccc2)CCCCC1 (centres undefined) | active: -113% |
| O=C(C1CCCN(S(=O)(=O)c2cnc[nH]2)C1)N(CCc1ccccc1)Cc1ccccc1 (centres undefined) | inactive: 11.6% |
| CN1/C(=C\C(=O)c2oc3ccccc3c2N)C(C)(C)c2ccccc21 | inconclusive: -38.7% |
| Cc1nnc(-c2ccc(Oc3ccc(Cl)cc3)c([N+](=O)[O-])c2)o1 | inactive: -15.7% |
| O=C(C[n+]1cc2ccccc2c2ccccc21)c1ccccc1 | inconclusive: -33.6% |
| CCC(=O)N(CCC1(C(C)C)CCOC(C)(C)C1)Cc1ccco1 (centres undefined) | inconclusive: -58% |
| O=c1cc(-c2ccccc2)nc(N2CCN(Cc3ccc4c(c3)OCO4)CC2)[nH]1 | inconclusive: -63.8% |
| COc1ccccc1N(C)S(=O)(=O)c1ccc(C(=O)NC2=NCCS2)cc1 | inactive: -5.15% |
| O=C(Nc1ccccc1)c1cccc(N2C(=O)CCC2=O)c1 | inconclusive: -31.6% |
| CC(C)(C)NC(=S)NNC(=O)c1ccncc1 | active: -114% |
| CCOc1ccc(CCNC(=O)CSc2nn(-c3ccc(C)c(Cl)c3)c(=S)s2)cc1OCC | inconclusive: -54.8% |
| CCOC(=O)c1c(C)c(-c2ccccc2)n(CC(=O)NCCC(C)C)c1C | inconclusive: -33% |

Reprinted at random: 4 records from the list, in no set order.

| SMILES | activity change (PNC), negative = inhibition |
| --- | --- |
| C=CCC1(NC(C)c2ccccc2)CCCCC1 (centres undefined) | active: -113% |
| Cc1cc(C)cc(NS(=O)(=O)c2ccc(NC(=S)NC(=O)c3cccs3)cc2)c1 | inconclusive: -48.6% |
| COc1ccccc1N(C)S(=O)(=O)c1ccc(C(=O)NC2=NCCS2)cc1 | inactive: -5.15% |
| CC(C)NC(=S)N1CCn2c(nc3ccccc32)C1 | inconclusive: -48.1% |

Further compounds follow:

| SMILES | activity change (PNC), negative = inhibition |
| --- | --- |
| Cc1ccc(O)c(-c2cc(C(=O)NCc3ccncc3)[nH]n2)c1 | inactive: -5.8% |
| CC1CCCC(NC(=O)CSc2ncccc2C(=O)O)C1C (centres undefined) | inconclusive: -30.6% |
| Cc1nn(Cc2ccc(Cl)cc2Cl)c(C)c1NC(=O)c1sc2ccccc2c1Cl | inactive: 6.27% |
| O=C(c1ccco1)N1CCN(CC(O)COc2ccc3oc4ccccc4c3c2)CC1 (centres undefined) | active: -92.6% |
| CCn1c2ccccc2c2cc(NC(=O)CSc3nnc(-c4cccc(C)c4)o3)ccc21 | inconclusive: -31.3% |
| Cc1ccc2c(CSc3nnc4ccccn34)cc(=O)oc2c1C | inactive: -7.33% |
| CCOC(=O)c1cn(CC)c2cc(N3CCSCC3)c(F)cc2c1=O | inconclusive: -61.1% |
| CC(NC(=O)CCc1ccccc1)c1cc2c(cc1Cl)OCCO2 (centres undefined) | inconclusive: -66.9% |
| CCN(C(=O)c1cc2ccccc2oc1=O)c1cccc(C)c1 | inconclusive: -40% |
| CC(C)(C)C(=O)Nc1nnc(SCC(=O)Nc2ccc3c(c2)OCO3)s1 | inconclusive: -49% |
| FC(F)C(F)(F)C1=CC(c2cccs2)=NCCN1 | inconclusive: -47.7% |
| Cc1c(C(=O)N2CCCC2)sc(NC(=O)c2cccs2)c1C#N | inactive: -21.6% |
| O=S(=O)(NC1CCCC1)c1ccc(Br)s1 | inactive: 23.6% |
| N#CCCn1c(SCC(=O)NCc2ccco2)nc2ccccc21 | inconclusive: -46.5% |
| CCCn1c(CCc2ccccc2)nnc1SCC(=O)N1CCCC1 | inconclusive: -52.2% |
| S=C(NCc1ccccc1)NCc1ccc2c(c1)OCO2 | inconclusive: -53.3% |
| CCN(CC)C(=O)c1ccc(S(=O)(=O)NCc2cccnc2)cc1 | inactive: 7.61% |
| COc1ccc(OCCCC(=O)Nc2nncs2)cc1 | active: -100% |
| Cc1cc(OC(C)C)nc(NCc2ccccc2)n1 | inconclusive: -30.6% |
| O=C(Cc1cn2ccsc2n1)Nc1nc2c(s1)CCCC2 | inconclusive: -40% |

| SMILES | activity change (PNC), negative = inhibition |
| --- | --- |
| O=C(NC1CC2CCC1C2)C1COc2ccccc2O1 (centres undefined) | active: -85.8% |
| CCCc1cc(NCC2CCCO2)n2c(nc3ccccc32)c1C#N (centres undefined) | inconclusive: -38.4% |
| Cc1cc2cc(CCNC(=O)c3ccc(S(=O)(=O)N4CCOCC4)cc3)c(=O)[nH]c2cc1C | inconclusive: -58.2% |
| CCCCC(O)(CCCC)C(=O)NN(C(=O)CCl)c1ccccc1 | inconclusive: -47.1% |
| CCCCn1ccnc1C(=O)c1ccc(S(=O)(=O)N(CCOC)CCOC)cc1 | inactive: 70.4% |
| CCN(CC)S(=O)(=O)c1ccc(NC(=S)NC(=O)CC(C)C)cc1 | active: -83% |
| COc1ccc(NC(=O)c2cccnc2Cl)c(S(=O)(=O)N2CCOCC2)c1 | inactive: 31.5% |
| CCCN1C(=O)/C(=C/c2ccc(C)o2)SC1=Nc1ccc(OCC)cc1 | inconclusive: -77.6% |
| O=c1c(-c2ccc3c(c2)OCCO3)c(C(F)(F)F)oc2cc(O)cc(O)c12 | inconclusive: -54.5% |
| CCN1CCc2nc(NC(=O)Cc3ccc4c(c3)OCCO4)sc2C1 | inconclusive: -42.4% |
| O=C(Cn1c(=O)n(Cc2ccco2)c(=O)c2ccccc21)Nc1cccc(Cl)c1 | inactive: -3.51% |
| COc1cccc(NC(=O)Cc2c(O)c3ccccc3[nH]c2=O)c1 | inconclusive: -33.1% |
| C=CCN=c1scc(-c2ccccc2)n1/N=C/c1ccccn1 | active: -106% |
| CC(C)Cn1c(N)c(C(=O)CCl)c(=O)n(C)c1=O | inconclusive: -38% |
| CCN(CCCNC(=O)Cn1ncc2c(=O)oc3ccccc3c21)c1cccc(C)c1 | inactive: -3.74% |
| O=C(O)CSc1nnnn1-c1ccccc1 | inconclusive: -71.7% |
| CN(C)S(=O)(=O)c1cccc(N=C2NN=C(c3ccccc3)CS2)c1 | inconclusive: -59.4% |
| C=CCn1c(COc2cccc3cccnc23)nnc1SCC(=O)O | inconclusive: -52.9% |
| c1coc(-c2nn3c(Cn4nnc5ccccc54)nnc3s2)c1 | inactive: 4.35% |
